Experimental data: patent publication US20180369186A1, “METHOD FOR MODULATING AUTOPHAGY AND APPLICATIONS THEREOF” (JAWAHARLAL NEHRU CENTRE FOR ADVANCED SCIENTIFIC RESEARCH, priority 2015, published 2018)
At least one structure is not confirmed: it was looked up by name or label, or the drawing left a doubt.

Experiments:
mTOR = mTOR signalling immunoblots (P70S6K, 4E-BP1); format: cell-based, human; settings: 5 μM, 2 h; vs nutrient rich condition
[1] = tested on: TH+ dopaminergic neurons in SNpc; experiment: MPTP mouse model: TH+ dopaminergic neurons in SNpc (stereology, densitometry, volume); format: in vivo; settings: MPTP and XCT 790 co-treated mice
Protocol: As described by Vernice Jackson-Lewis & Serge Przedborski (2007), 23.4 mg/kg MPTP.HCl (equivalent to 20 mg/kg free base) in 10 ml/kg body wt. of saline is administered intraperitoneally (i.p.) for 4 times at 2 h intervals.
All mice are sacrificed 9 days post MPTP administration and brains are processed for immunohistochemistry.
Mice are anaesthetized using Halothane BP (Piramal Healthcare) inhalation and perfused intracardially with normal saline followed by 4% PFA in 0.1 M phosphate buffer, pH 7.4. Brains are removed quickly and post-fixed with 4% PFA for 24 h-48 h at 4° C. […]
As described by Y. Fu et al., SNpcis delineated using the 4× objective of Olympus BX61 Microscope (Olympus) equipped with Stereo Investigator Software Version 7.2 (MicroBrightField). Stereological quantification is performed using optical fractionator probe with slight modifications(P. A. Alladi et al.). Briefly, every sixth midbrain section containing SNpc is chosen and TH^+ cells are counted under 100× objective, with a regular grid interval of 22500 μm^2 (x=150 μm, y=150 μm) and counting frame with an area of 3600 μm^2 (x=60 μm, y=60 μm) (FIG. 10B). Mounted thickness is determined at every fifth site, averaging to 25 μm. […] The quantification is performed starting with first anterior appearance of TH^+ neurons in SNpc to caudal most part. […]

[2] = Rotarod test in MPTP mice; format: in vivo; settings: 5 mg/kg; day 13 and day 15
Protocol: (§1) All the behavioural experiments are done on 3-4 month old, male C57/B16 mice. Experimenters are blind to the drug injected animals. Experimenters handle mice used for behavioral experiments for 3 consecutive days prior to the training paradigm. Behavioral experiments are designed in an order of low to high stress activity for mice. Therefore, Open Field Test is conducted in forenoon while rotarod is performed in the afternoon.
(§2) Mice were habituated to the behaviour room for 15 minutes every day before start of experiments. The light intensity is maintained at 100 lux throughout the experiment. Mice are weighed every day before training or test to ensure their good health. Mice are randomly allocated into three treatment cohorts: placebo control, MPTP and 6-Bio. Data is plotted using GraphPad prism 5 software.
The rotarod instrument is custom made at the Mechanical workshop, National Centre of Biological Sciences, Bengaluru, India. The rotating rod (diameter 3.3 cm) is made of Delrin and is textured to enhance the grip of mice. The rod is fixed at a height of 30 cm from the cushioned platform where mice fell on to during training and test. The rod is partitioned into three areas of 9.3 cm distance between each partition using discs (40 cm diameter) made of Teflon. […] The entire trial is video recorded using a DSLR camera (Nikon D5100) and latencies are scored manually. […]

[3] = tested on: HeLa cells (autophagosomes and autolysosomes); experiment: Tandem RFP-GFP-LC3B (traffic light) assay in HeLa cells; format: cell-based, human
Protocol: Transfection is done on a 60 mm dish with HeLa cells at 60-70% confluency. Cells were transfected with tandem RFP-GFP-MAP1LC3B construct (Addgene plasmid #21074) using 5 μl of Lipofectamine 2000 (11668-019, Invitrogen) and 2.5 μg of DNA (2:1 ratio) diluted in 100 μl of OPTI-MEM (31985-070, Invitrogen) separately. 72 hours after transfection cells are either left untreated or treatment with various concentrations of Bay11-7082 ZPCK is done for 2 hours. Starvation is induced by treating cells with Earle's balanced salt solution (EBBS). After treatment, cells are fixed in 4% paraformaldehyde and permeabilized using 0.25% Triton X-100, The coverslip is mounted with […] antifade reagent (H-1000, Vector laboratories). Imaging for HeLa cells is carried out using Delta vision microscope (Olympus 60×/1.4, Plan ApoN, excitation and emission filter Cy5, FITC and TRITC, polychroic Quad). […]
Images are acquired using DeltaVisionElitewidefield microscope (API, GE) with following filters: DAPI (390/18 and 435/48), FITC (490/20 and 529/38), TRITC (542/27 and 594/45) and Cy5 (632/22 and 676/34). […] Autophagosome (yellow) and autolysosome (red) are counted using Cell Counter plug-in in ImageJ software (NIH) and graphically represented as fold difference versus untreated (FIG. 3E). […]

ERRα [4] = molecular target: T1, ERRα (Homo sapiens, UniProt P11474); settings: cited from earlier work
T1 sequence (P11474 1-423): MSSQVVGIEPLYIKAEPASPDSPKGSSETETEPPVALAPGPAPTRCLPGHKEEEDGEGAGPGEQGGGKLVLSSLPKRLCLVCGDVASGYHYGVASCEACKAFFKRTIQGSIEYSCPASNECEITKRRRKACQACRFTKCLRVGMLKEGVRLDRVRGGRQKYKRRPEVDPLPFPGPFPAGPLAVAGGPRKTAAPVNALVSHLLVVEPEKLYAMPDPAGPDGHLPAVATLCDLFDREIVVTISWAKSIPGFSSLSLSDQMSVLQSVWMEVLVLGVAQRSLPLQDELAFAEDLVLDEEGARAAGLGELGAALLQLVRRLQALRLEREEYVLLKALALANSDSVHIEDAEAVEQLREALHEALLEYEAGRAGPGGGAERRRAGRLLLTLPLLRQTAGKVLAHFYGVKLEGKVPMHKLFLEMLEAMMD

ERRα [5] = molecular target: T1, ERRα; experiment: Colocalization (PCC) of ERRα with autophagosomes in HeLa cells; format: cell-based; set-up: endogenous in cells; host or cells: HeLa; settings: basal autophagy conditions, 2 h
AMPK pathway = experiment: AMPK and ULK1 phosphorylation immunoblots; format: cell-based, human; settings: 2 hours
[6] = Open field test in MPTP mice; format: in vivo; settings: 5 mg/kg; day 13 and day 15
Protocol: as §1, §2
Open field arena (50 cm×50 cm×45 cm) is custom-made (JNCASR) using plywood and the internal surface was coated with white polish. Mice are trained in open field for 2 consecutive days prior to drug injection. […] The activity is video recorded (SONY® color video camera, Model no. SSC-G118) using a software (SMART v3.0.04 from Panlah, Harvard Apparatus, USA). […] Distance travelled is analyzed offline by an experimenter who was not involved in performing the experiment.

[7] = tested on: lace plant (Aponogeton madagascariensis) cells; experiment: Lace plant leaf MDC staining of punctate structures; format: cell-based; settings: overnight starvation combined with 5 μM wortmannin, 50 μM Bay11 or 50 μM ZPCK
Protocol: Axenic lace plant cultures are grown in magenta boxes and prepared according to Gunawardena et al. Leaves in the window stage are removed from the corm and rinsed thoroughly with distilled water prior to being sectioned into 2 mm^2 pieces. For starvation treatments, window stage leaves are removed from the plant, placed in distilled water and kept in the dark overnight.
Leaf sections are stained with monodansylcadaverine (MDC; 300 μM) (Sigma, D4008) and simultaneously treated with autophagy modulators for 2 hours in the dark. (1 hour vacuum infiltration at 15 psi). Treatment times, along with stain and modulator applications are optimized using concentration gradients followed by microscopy. […]
Tissue sections are then rinsed and mounted in distilled water prior to being scanned using a Nikon Eclipse Ti confocal microscope (Nikon 40X/1.30, Plan Fluor, 405 nm excitation and 450/30 nm emission). […] The mean number of puncta are quantified for each treatment group with a minimum of four independent experiments using NIS Elements Advanced Research software. Additionally, starvation treatment leaves are also exposed to 5 μM, wortmannin, 50 μM Bay11 and 50 μM ZPCK treatments and then qualitatively assessed via confocal microscopy.

With `COc1cc(C=C(C#N)C(=O)Nc2nnc(C(F)(F)F)s2)ccc1OCc1ccc(C(F)(F)F)cc1C(F)(F)F` [XCT 790, 3-[4-(2,4-Bis-trifluoromethylbenzyloxy)-3-methoxyphenyl]-2-cyano-N-(5-trifluoromethyl-1,3,4-thiadiazol-2-yl)acrylamide] the “mTOR activity (phospho-P70S6K and phospho-4EBP1)” value (mTOR) was “mTOR activity is unaffected”, the “TH expression in nigral neurons (densitometry)” value [1] was “comparable to that of the vehicle control group” and the “latency to fall, Co versus MPTP cohort” value [2] was “improved latency to fall”. The “autophagic modulating ability when ERRα is over expressed” value ([3]; ERRα over expressed) was “abrogated”, the “autophagic activity in presence of actinomycin D” value ([3]; co-treated with actinomycin D) was “remains unaffected” and the “activity at ERRα” value (ERRα [4]) was “potent and selective inverse agonist”. The “colocalization of ERRα with autophagosomes” value (ERRα [5]) was “significantly reduced”, the “mTOR-dependent phosphorylation of ULK1 at S757” value (AMPK pathway) was “remains unaltered” and the “phosphorylation of ULK1 at S555” value (AMPK pathway) was “unaffected”. The “activity of AMPK (T172 phosphorylation)” value (AMPK pathway; vs nutrient rich conditions) was “did not affect the activity of AMPK” and the “distance travelled in zone periphery, Co versus MPTP cohort” value [6] was “significantly more than that of MPTP cohort”.
For `COC[C@H]1OC(=O)c2coc3c2[C@@]1(C)C1=C(C3=O)[C@@H]2CCC(=O)[C@@]2(C)C[C@H]1OC(C)=O` [wortmannin], the “puncta in overnight starvation leaves” value [7] was “fewer puncta”.
